Values quoted from earlier work as cited in patent US5407954A, “Arylalkoxyphenoxy-imidazoline compounds” (Merrell Dow Pharmaceuticals Inc., priority 1994, dated 1995).
At least one compound was matched to its structure with a doubt left.

Columns and labels:
5-HT1b receptor = settings: in vitro radioligand binding and second messenger responses; cited from earlier work
5-HT1C receptor = settings: cited from earlier work

Clc1cccc(N2CCNCC2)c1 [m-chlorophenylpiperazine]
5-HT1b receptor agonist (5-HT1b receptor): 5-HT1b receptor agonist
5-HT1C receptor agonist (5-HT1C receptor): known 5-HT1C receptor agonist
